Measured values: the supplement of paper PMC12823440, “Inhibitors supercharge kinase turnover through native proteolytic circuits” (Nature, 2025)
The other results are listed elsewhere or left out. The calls rarely recur for the same compound in another form.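 Kinases were expressed as nanoluciferase fusions in K562 cells and luminescence was read every 4 h between 2 and 18 h as percent of control, DMSO set to 100% and a positive control to 0%. A time point counts as decreased when the signal drops significantly (2 sigma). The hit call is the authors' own, does not follow from the count of time points alone, and its rule is not shown.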

The chains behind the UniProt entries cited, without tags or fusion partners. Where a name states a change or a piece, a line headed by the entry shows the natural chain unless it says otherwise.
UniProt Q9BUB5: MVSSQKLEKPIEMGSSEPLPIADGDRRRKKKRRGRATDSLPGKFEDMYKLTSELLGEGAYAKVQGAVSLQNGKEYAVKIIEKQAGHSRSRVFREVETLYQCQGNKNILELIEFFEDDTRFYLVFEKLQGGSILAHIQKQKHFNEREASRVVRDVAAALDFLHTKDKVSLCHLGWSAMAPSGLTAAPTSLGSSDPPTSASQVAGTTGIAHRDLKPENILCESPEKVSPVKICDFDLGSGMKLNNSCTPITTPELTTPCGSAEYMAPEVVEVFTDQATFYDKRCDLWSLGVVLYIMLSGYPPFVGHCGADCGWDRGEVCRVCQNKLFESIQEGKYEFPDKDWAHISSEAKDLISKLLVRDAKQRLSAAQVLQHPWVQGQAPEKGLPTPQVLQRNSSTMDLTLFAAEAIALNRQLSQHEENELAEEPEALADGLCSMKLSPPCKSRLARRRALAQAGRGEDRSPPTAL
UniProt Q16288, whole entry, looked up: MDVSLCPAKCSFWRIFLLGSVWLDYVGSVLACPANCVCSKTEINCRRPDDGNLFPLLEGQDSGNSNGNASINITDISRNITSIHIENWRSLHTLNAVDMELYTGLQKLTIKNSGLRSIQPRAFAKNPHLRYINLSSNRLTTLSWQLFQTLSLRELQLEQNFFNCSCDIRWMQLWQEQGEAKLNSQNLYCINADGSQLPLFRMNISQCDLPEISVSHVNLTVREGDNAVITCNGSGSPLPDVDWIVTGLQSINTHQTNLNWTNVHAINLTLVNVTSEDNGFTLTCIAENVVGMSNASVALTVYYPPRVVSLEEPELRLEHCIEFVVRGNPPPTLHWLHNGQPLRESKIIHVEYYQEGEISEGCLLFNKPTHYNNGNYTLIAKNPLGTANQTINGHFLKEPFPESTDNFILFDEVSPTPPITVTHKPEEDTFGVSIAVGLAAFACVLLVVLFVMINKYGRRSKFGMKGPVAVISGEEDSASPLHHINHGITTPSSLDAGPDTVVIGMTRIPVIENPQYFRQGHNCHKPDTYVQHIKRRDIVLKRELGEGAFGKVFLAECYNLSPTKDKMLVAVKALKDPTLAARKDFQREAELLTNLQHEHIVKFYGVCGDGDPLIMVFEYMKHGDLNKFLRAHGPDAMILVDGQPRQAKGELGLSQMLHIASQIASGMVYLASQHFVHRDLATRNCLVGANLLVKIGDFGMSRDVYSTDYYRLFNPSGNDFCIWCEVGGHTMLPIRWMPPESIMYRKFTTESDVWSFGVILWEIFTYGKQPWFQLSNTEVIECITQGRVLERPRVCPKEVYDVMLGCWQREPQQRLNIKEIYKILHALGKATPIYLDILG
UniProt O15530: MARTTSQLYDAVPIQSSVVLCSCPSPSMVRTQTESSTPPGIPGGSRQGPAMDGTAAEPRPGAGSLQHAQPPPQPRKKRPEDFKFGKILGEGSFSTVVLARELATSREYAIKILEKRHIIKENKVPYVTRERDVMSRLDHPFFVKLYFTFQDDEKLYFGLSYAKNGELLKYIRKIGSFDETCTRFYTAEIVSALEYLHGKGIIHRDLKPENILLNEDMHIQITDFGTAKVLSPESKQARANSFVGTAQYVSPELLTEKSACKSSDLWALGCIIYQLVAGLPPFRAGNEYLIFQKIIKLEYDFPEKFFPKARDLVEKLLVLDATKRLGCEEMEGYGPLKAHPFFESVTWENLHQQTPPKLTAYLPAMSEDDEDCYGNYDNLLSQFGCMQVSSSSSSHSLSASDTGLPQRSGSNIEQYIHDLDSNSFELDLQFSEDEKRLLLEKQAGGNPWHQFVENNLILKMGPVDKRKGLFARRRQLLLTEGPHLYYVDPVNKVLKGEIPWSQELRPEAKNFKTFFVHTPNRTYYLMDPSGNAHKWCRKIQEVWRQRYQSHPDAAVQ
UniProt P42356, whole entry, looked up: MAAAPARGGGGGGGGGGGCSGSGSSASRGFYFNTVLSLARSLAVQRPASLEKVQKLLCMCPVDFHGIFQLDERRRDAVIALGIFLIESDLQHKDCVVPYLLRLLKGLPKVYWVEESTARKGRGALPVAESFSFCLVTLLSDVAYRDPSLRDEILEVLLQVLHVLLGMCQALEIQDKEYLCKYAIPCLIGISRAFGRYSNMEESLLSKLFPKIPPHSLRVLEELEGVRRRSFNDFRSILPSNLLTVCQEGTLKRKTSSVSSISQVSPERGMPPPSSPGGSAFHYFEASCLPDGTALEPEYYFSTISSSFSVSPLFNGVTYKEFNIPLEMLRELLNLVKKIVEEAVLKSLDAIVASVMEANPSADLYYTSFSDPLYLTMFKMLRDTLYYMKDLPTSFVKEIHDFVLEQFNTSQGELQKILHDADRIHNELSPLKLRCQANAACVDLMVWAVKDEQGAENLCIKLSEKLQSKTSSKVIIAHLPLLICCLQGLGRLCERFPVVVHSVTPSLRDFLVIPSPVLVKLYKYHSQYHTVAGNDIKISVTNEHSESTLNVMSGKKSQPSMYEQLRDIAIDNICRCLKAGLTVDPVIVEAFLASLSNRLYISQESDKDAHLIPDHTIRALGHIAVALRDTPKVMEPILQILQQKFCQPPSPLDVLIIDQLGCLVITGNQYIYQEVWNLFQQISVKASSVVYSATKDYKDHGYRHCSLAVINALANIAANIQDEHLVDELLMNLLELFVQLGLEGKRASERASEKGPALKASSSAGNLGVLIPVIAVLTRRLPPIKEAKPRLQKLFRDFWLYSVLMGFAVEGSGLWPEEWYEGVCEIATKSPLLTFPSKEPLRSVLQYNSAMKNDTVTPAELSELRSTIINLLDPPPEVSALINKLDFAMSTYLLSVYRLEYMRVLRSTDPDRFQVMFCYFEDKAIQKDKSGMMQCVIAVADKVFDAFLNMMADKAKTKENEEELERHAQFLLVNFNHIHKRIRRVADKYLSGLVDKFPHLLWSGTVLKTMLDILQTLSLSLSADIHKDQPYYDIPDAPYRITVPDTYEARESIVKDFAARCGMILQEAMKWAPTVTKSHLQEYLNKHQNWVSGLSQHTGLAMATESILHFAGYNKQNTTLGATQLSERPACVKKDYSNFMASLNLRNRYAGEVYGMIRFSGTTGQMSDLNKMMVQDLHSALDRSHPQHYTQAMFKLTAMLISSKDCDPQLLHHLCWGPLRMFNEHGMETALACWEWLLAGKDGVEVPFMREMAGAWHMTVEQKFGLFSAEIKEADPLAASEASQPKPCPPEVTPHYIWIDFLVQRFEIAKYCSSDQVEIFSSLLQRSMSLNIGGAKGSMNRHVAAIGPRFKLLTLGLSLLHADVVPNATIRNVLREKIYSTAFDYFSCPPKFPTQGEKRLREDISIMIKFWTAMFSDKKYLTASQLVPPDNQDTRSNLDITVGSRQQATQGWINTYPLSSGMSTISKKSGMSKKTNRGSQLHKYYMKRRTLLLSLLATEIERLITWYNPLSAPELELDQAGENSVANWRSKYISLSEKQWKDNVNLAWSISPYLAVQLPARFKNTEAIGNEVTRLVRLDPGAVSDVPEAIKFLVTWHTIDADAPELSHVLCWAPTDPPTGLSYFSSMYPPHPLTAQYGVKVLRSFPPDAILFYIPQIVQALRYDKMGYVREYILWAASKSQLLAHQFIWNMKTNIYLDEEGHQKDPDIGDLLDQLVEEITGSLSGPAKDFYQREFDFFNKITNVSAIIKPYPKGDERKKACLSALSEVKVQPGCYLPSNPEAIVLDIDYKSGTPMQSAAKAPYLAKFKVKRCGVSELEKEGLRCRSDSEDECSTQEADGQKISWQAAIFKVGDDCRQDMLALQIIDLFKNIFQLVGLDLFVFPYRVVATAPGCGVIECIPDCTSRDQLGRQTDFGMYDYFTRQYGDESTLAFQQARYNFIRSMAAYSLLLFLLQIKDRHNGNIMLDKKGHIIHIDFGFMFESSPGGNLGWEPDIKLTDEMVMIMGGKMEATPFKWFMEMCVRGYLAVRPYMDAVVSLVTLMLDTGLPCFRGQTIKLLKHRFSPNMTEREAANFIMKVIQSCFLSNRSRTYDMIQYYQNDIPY
UniProt P53350, whole entry: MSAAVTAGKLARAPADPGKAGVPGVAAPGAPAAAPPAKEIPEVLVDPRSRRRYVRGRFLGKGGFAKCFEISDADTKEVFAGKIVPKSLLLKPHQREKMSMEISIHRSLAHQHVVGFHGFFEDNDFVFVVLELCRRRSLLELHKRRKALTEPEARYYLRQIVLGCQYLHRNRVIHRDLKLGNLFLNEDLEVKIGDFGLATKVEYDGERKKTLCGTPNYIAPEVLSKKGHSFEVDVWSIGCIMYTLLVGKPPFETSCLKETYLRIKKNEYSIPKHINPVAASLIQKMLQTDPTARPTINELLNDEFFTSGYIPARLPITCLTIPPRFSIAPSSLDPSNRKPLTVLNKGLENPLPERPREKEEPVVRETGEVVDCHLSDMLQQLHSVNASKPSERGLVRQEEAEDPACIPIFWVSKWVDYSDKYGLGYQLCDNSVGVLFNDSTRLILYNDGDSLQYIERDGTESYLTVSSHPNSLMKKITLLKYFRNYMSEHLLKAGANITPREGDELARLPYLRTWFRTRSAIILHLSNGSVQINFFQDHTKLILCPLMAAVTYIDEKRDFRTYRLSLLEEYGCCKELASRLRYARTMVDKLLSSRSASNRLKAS
UniProt Q05397, whole entry, looked up: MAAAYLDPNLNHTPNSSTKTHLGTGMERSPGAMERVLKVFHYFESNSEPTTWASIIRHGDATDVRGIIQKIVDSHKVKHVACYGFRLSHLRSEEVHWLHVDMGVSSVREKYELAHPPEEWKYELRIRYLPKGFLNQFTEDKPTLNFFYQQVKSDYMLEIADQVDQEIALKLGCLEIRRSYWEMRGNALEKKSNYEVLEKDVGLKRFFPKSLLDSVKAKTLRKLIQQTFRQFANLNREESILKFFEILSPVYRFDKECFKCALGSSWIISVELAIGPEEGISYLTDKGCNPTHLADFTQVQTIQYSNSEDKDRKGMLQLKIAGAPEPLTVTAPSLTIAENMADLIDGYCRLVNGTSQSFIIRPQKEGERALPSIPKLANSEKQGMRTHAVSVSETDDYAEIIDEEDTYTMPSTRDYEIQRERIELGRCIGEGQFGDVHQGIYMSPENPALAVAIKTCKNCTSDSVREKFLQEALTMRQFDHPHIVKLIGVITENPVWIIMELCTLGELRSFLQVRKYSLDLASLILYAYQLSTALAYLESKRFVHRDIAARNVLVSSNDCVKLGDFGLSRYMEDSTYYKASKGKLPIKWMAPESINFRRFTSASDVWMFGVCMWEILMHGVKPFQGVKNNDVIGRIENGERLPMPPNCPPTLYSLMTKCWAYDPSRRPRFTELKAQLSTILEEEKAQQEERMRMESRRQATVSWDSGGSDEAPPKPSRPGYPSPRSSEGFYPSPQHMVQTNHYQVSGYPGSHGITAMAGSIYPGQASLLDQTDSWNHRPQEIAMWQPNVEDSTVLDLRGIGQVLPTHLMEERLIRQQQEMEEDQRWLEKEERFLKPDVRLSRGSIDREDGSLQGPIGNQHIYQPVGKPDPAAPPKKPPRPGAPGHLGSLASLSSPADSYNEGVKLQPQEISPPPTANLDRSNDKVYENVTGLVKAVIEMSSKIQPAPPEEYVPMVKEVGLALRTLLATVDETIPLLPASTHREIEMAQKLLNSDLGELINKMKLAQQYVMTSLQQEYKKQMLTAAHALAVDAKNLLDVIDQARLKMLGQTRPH

Key:
Assay in all cases: kinase-Nluc reporter destabilization hit call (1 = scored as downregulated) (binary); higher = compound decreases kinase abundance
Details in all cases: K562; 2-18 h
MAPK1 = MAPK1 (UniProt P28482)
MAPK4 = MAPK4 (UniProt P31152)
MAPKAPK2 = MAPKAPK2 (UniProt P49137)
MKNK1 = MKNK1 (UniProt Q9BUB5)
NTRK2 = NTRK2 (UniProt Q16620)
NTRK3 = NTRK3 (UniProt Q16288)
PAK4 = PAK4 (UniProt O96013)
PBK = PBK (UniProt Q96KB5)
PDGFRB = PDGFRB (UniProt P09619)
PDK1 = PDK1 (UniProt Q15118)
PDPK1 = PDPK1 (UniProt O15530)
PIK4CA = PIK4CA (UniProt P42356)
PIK4CB = PIK4CB (UniProt Q9UBF8)
PLK1 = PLK1 (UniProt P53350)
PRKAA1 = PRKAA1 (UniProt Q13131)
PRKCA = PRKCA (UniProt P17252)
PTK2 = PTK2 (UniProt Q05397)
PTK2B = PTK2B (UniProt Q14289)
RAF1 = RAF1 (UniProt P04049)
[1] = target: RAF1_S257L (clone: RAF1_mut) (UniProt P04049)

Measured: kinase-Nluc reporter destabilization hit call

O=C1NC(=NCc2cccs2)S/C1=C\c1ccc2ncccc2c1 (10 µM)
inactive: MAPK1 = 0 | MAPK4 = 0 | MAPKAPK2 = 0 | MKNK1 = 0 | NTRK2 = 0 | NTRK3 = 0 | PAK4 = 0 | PBK 0 | PDGFRB 0 | PDK1 = 0 | PDPK1 = 0 | PIK4CA 0 | PIK4CB 0 | PLK1 = 0 | PRKAA1 = 0 | PRKCA 0 | PTK2 = 0 | PTK2B 0 | RAF1 = 0 | [1] 0

CC[C@H](CO)Nc1nc(NCc2ccccc2)c2ncn(C(C)C)c2n1 [Seliciclib] (10 µM)
inactive: MAPK1 = 0 | MAPK4 = 0 | MAPKAPK2 = 0 | MKNK1 = 0 | NTRK2 = 0 | NTRK3 = 0 | PAK4 = 0 | PBK 0 | PDGFRB 0 | PDK1 = 0 | PDPK1 = 0 | PIK4CA 0 | PIK4CB 0 | PLK1 = 0 | PRKAA1 = 0 | PRKCA 0 | PTK2 = 0 | PTK2B 0 | RAF1 = 0 | [1] 0

CN1CCN(S(=O)(=O)c2ccc(-c3cnc(N)c(C(=O)Nc4cccnc4)n3)cc2)CC1 (10 µM)
inactive: MAPK1 = 0 | MAPK4 = 0 | MAPKAPK2 = 0 | MKNK1 = 0 | NTRK2 = 0 | NTRK3 = 0 | PAK4 = 0 | PBK 0 | PDGFRB 0 | PDK1 = 0 | PDPK1 = 0 | PIK4CA 0 | PIK4CB 0 | PLK1 = 0 | PRKAA1 = 0 | PRKCA 0 | PTK2 = 0 | PTK2B 0 | RAF1 = 0 | [1] 0

COCCOc1cc2nccc(Nc3n[nH]c(C)c3C)c2cc1S(=O)(=O)C(C)(C)C [RIP2 kinase inhibitor 2] (2.5 µM)
inactive: MAPK1 = 0 | MAPK4 = 0 | MAPKAPK2 = 0 | MKNK1 = 0 | NTRK2 = 0 | NTRK3 = 0 | PAK4 = 0 | PBK 0 | PDGFRB 0 | PDK1 = 0 | PDPK1 = 0 | PIK4CA 0 | PIK4CB 0 | PLK1 = 0 | PRKAA1 = 0 | PRKCA 0 | PTK2 = 0 | PTK2B 0 | RAF1 = 0 | [1] 0

CC(C)(C)n1nc(Cc2cccc3ccccc23)c2c(N)ncnc21 (10 µM)
inactive: MAPK1 = 0 | MAPK4 = 0 | MAPKAPK2 = 0 | MKNK1 = 0 | NTRK2 = 0 | NTRK3 = 0 | PAK4 = 0 | PBK 0 | PDGFRB 0 | PDK1 = 0 | PDPK1 = 0 | PIK4CA 0 | PIK4CB 0 | PLK1 = 0 | PRKAA1 = 0 | PRKCA 0 | PTK2 = 0 | PTK2B 0 | RAF1 = 0 | [1] 0

Cc1ccc2c(Nc3ccc(Cl)cc3)nccc2c1Nc1ncccc1-c1ncnc2nc[nH]c12 [Raf inhibitor 1] (2.5 µM)
inactive: MAPK1 = 0 | MAPK4 = 0 | MAPKAPK2 = 0 | MKNK1 = 0 | NTRK2 = 0 | NTRK3 = 0 | PAK4 = 0 | PBK 0 | PDGFRB 0 | PDK1 = 0 | PDPK1 = 0 | PIK4CA 0 | PIK4CB 0 | PLK1 = 0 | PRKAA1 = 0 | PRKCA 0 | PTK2 = 0 | PTK2B 0 | RAF1 = 0 | [1] 0

C[C@H](CN(C)C)Oc1nc(Nc2cc3cccc(Cl)c3cn2)cnc1C#N (10 µM)
inactive: MAPK1 = 0 | MAPK4 = 0 | MAPKAPK2 = 0 | MKNK1 = 0 | NTRK2 = 0 | NTRK3 = 0 | PAK4 = 0 | PBK 0 | PDGFRB 0 | PDK1 = 0 | PDPK1 = 0 | PIK4CA 0 | PIK4CB 0 | PLK1 = 0 | PRKAA1 = 0 | PRKCA 0 | PTK2 = 0 | PTK2B 0 | RAF1 = 0 | [1] 0

CNC(=O)c1ccccc1Nc1nc(Nc2ccc(N3CCOCC3)cc2OC)ncc1Cl (2.5 µM)
inactive: MAPK1 = 0 | MAPK4 = 0 | MAPKAPK2 = 0 | MKNK1 = 0 | NTRK2 = 0 | NTRK3 = 0 | PAK4 = 0 | PBK 0 | PDGFRB 0 | PDK1 = 0 | PDPK1 = 0 | PIK4CA 0 | PIK4CB 0 | PLK1 = 0 | PRKAA1 = 0 | PRKCA 0 | PTK2 = 0 | PTK2B 0 | RAF1 = 0 | [1] 0

CC(C)c1ccc2oc3nc(N)c(C(=O)O)cc3c(=O)c2c1 [Amlexanox] (10 µM)
inactive: MAPK1 = 0 | MAPK4 = 0 | MAPKAPK2 = 0 | MKNK1 = 0 | NTRK2 = 0 | NTRK3 = 0 | PAK4 = 0 | PBK 0 | PDGFRB 0 | PDK1 = 0 | PDPK1 = 0 | PIK4CA 0 | PIK4CB 0 | PLK1 = 0 | PRKAA1 = 0 | PRKCA 0 | PTK2 = 0 | PTK2B 0 | RAF1 = 0 | [1] 0
